According to patent US12685780B2, “Immune inducer containing polynucleotide-peptide conjugate and pharmaceutical composition containing same” (The University of Kitakyushu, priority 2020, dated 2026):

system: ERAP; test: In vitro evaluation of peptide cleavage by ERAP; type: biochemical; conditions: in vitro evaluation using the peptide

Susceptibility of the peptide to cleavage by ERAP, became susceptible to cleavage by ERAP:
CM-TRP2-9: CMSVYDFFVWL (SEQ ID NO: 35); cysteine and methionine added to N-terminus of mTRP2 residues 180 to 188 (CM-TRP2-9)
C-TRP2-11: CNASVYDFFVWL (SEQ ID NO: 37); cysteine added to N-terminus of mTRP2 residues 178 to 188 (C-TRP2-11)
C-TRP2-13: CFANASVYDFFVWL (SEQ ID NO: 36); cysteine added to N-terminus of mTRP2 residues 176 to 188 (C-TRP2-13)

Some entries repeat one wording, which the source may state once for all of them.
